# Experimental data taken from the supplement of paper PMC6411743.
# Protein sequences, listed by entry. Tags and fused reporters are not part of them. Lines headed by an entry give the natural chain unless they say otherwise; changes in a name come on top.
# UniProt Q96P50: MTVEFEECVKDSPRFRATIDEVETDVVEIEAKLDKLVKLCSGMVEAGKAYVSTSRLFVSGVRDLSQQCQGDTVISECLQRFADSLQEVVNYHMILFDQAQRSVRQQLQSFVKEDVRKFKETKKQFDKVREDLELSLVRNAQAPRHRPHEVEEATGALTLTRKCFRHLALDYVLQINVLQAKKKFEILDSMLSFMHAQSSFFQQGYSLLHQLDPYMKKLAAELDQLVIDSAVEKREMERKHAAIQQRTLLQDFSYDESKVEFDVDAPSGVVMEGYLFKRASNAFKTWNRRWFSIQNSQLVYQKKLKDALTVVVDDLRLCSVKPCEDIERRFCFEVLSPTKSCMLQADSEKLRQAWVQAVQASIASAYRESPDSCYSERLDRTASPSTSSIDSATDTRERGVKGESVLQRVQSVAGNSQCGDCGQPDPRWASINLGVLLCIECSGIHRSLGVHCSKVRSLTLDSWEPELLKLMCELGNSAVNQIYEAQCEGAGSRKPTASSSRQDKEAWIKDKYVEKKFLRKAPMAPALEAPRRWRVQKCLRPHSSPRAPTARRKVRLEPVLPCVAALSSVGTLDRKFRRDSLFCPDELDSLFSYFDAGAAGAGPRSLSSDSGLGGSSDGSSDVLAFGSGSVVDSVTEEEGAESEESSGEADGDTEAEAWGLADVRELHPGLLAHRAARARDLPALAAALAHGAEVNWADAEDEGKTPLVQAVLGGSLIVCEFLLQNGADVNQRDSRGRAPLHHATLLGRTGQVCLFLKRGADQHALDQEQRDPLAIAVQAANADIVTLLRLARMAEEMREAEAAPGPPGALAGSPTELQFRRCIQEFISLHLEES
# UniProt Q96NL6: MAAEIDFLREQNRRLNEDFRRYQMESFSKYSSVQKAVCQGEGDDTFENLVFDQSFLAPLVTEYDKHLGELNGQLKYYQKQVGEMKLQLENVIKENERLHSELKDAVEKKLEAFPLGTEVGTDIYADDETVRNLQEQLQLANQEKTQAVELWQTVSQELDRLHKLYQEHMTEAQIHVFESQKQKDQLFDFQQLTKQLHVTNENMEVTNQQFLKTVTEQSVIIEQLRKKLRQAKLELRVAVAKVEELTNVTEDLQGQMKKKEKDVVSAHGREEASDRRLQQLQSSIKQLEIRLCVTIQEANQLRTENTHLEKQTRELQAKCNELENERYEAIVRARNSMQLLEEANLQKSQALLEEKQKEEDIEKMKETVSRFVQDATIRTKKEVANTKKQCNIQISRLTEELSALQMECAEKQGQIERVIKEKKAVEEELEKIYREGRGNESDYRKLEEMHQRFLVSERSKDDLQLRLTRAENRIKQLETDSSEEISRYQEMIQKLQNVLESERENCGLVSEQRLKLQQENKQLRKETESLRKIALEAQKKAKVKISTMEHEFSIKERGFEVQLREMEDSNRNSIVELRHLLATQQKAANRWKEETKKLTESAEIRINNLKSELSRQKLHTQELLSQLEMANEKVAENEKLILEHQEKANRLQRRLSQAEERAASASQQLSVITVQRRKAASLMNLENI
# UniProt Q96MG8: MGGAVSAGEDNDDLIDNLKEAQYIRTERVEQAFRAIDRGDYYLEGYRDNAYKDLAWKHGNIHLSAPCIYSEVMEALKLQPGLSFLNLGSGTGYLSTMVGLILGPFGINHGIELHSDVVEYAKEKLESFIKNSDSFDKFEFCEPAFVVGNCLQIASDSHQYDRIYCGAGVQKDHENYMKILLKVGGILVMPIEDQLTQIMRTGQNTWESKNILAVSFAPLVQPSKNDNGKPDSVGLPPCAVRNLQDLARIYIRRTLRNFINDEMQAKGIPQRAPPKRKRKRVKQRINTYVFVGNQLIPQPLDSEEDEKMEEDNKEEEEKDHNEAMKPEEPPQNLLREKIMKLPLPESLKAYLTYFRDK
# UniProt Q96ES7: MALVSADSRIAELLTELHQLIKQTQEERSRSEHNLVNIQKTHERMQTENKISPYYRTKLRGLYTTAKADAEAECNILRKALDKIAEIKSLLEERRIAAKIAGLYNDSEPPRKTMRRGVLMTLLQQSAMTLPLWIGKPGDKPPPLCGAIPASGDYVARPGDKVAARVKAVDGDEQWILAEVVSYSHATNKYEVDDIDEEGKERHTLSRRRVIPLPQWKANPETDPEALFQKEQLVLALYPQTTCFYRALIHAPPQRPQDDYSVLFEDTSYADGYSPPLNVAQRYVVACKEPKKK
# UniProt Q96F25: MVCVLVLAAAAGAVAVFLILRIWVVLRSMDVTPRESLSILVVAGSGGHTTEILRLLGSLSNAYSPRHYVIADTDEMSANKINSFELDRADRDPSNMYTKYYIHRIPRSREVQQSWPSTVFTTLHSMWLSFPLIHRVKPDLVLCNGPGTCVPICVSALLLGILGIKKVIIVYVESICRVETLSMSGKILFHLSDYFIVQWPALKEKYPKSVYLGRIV
# UniProt Q96KC8: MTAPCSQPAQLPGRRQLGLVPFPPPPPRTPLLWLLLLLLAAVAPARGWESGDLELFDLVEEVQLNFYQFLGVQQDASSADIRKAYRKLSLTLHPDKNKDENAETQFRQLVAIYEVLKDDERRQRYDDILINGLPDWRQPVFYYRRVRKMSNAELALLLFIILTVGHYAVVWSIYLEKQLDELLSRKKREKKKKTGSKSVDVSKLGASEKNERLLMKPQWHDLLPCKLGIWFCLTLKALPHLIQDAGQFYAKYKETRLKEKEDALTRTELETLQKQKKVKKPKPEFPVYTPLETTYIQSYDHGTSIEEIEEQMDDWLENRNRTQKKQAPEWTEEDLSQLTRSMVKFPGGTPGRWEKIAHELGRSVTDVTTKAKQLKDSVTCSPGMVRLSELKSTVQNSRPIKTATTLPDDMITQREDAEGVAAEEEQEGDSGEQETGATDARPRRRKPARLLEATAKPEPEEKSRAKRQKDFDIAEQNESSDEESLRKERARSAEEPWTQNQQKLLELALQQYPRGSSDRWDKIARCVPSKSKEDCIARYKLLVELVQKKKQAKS
# UniProt Q96S97: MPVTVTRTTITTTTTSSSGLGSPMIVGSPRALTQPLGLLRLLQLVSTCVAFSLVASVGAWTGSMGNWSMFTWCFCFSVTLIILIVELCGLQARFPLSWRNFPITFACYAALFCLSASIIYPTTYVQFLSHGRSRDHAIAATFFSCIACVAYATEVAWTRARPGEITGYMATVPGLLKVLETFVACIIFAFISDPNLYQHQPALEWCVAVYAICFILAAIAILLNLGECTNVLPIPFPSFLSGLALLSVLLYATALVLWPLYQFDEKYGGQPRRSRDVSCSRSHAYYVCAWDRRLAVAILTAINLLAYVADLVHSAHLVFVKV
# UniProt Q96DA2: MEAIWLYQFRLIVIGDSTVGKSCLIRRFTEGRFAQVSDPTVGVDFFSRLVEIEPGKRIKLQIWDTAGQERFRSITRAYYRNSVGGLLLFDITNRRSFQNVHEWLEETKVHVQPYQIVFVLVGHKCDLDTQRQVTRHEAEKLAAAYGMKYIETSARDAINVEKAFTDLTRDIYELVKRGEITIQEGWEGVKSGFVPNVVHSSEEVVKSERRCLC
# UniProt Q96RG2: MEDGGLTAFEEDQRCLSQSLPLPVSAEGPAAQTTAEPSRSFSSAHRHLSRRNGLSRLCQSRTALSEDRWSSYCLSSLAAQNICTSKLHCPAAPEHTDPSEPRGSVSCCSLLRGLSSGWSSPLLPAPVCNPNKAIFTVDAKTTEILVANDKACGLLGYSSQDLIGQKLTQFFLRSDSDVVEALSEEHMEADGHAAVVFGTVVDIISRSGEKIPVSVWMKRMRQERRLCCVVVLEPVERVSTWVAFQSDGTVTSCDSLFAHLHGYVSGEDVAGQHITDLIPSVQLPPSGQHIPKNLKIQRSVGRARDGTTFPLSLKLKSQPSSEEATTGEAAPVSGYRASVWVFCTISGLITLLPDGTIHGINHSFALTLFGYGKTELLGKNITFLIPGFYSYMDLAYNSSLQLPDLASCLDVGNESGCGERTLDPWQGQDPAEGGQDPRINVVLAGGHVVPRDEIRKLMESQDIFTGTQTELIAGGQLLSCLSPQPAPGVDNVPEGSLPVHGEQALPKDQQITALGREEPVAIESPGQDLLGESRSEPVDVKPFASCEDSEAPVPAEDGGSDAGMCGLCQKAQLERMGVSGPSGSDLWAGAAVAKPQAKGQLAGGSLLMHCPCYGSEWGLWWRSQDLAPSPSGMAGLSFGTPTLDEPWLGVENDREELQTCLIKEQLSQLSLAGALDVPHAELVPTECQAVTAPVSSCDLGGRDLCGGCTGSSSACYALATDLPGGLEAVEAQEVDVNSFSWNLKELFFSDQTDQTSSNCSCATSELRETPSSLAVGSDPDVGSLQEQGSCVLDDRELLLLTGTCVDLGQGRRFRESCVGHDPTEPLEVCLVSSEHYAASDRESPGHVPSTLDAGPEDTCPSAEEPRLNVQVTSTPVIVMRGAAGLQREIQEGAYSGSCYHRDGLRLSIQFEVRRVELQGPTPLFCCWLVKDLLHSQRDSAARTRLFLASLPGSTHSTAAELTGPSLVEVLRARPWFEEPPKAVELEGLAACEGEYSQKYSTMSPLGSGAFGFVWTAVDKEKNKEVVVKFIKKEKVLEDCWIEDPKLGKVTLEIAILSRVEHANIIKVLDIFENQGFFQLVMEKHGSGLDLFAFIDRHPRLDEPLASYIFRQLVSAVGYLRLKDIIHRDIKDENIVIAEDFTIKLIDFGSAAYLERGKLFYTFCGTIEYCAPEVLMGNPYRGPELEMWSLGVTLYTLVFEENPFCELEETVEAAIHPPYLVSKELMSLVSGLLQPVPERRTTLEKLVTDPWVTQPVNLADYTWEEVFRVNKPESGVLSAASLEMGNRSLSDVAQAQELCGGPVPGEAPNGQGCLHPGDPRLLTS
# UniProt Q96GC9: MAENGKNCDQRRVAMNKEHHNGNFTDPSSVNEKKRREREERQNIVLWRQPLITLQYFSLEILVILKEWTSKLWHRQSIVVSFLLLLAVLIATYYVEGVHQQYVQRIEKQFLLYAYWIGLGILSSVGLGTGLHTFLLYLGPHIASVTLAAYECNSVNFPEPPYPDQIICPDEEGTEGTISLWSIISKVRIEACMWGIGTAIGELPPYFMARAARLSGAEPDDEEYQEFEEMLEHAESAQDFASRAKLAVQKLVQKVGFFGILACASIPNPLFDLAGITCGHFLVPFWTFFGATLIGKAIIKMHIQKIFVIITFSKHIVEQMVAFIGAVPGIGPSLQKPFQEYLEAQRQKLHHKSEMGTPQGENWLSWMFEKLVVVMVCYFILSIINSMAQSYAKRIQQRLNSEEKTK
# ± gives the standard deviation of the averaged measurements. The entries are a selection whose mix differs from that of the whole data set. Small differences around the control level are noise.
# Compound: Nc1ncnc2c1ncn2[C@@H]1O[C@H](COP(=O)(O)OP(=O)(O)OP(=O)(O)O)[C@@H](O)[C@H]1O [adenosine triphosphate]
# Assay: NP40-soluble protein abundance relative to vehicle (solubility fold change) (ratio); higher = more soluble protein in presence of ATP
# Details: concentration: 0.5mM
# Summary of the method: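 Eight concentrations, 0.1 to 10 mM, were tested on Jurkat crude lysate for 10 min at room temperature and then 3 min at 37 °C, in three independent experiments. The lysate was solubilised with 0.8% NP40 and benzonase, ultracentrifuged, and the supernatant TMT-labelled for LC-MS/MS. Each value is the fold change against the detergent-processed vehicle in its own replicate, from vsn-normalised intensities.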
row,Target,NP40-soluble protein abundance
1,UniProt Q96P50 and related entries,1.069 ± 0.006
2,SCLT1 (UniProt Q96NL6),0.977 ± 0.099
3,PCMTD1 (UniProt Q96MG8),0.967 ± 0.077
4,UniProt Q96ES7,0.964 ± 0.099
5,ALG14 (UniProt Q96F25),1.07 ± 0.049
6,DNAJC1 (UniProt Q96KC8),0.984 ± 0.019
7,UniProt Q96S97 and related entries,1.05 ± 0.059
8,VPS35 (UniProt Q96QK1),1 ± 0.013
9,RAB39B (UniProt Q96DA2),1.08 ± 0.15
10,UniProt Q96BW9-2|Q96BW9-3|Q96BW9,1.15 ± 0.028
11,UniProt Q96RG2 and related entries,0.999 ± 0.011
12,UniProt Q96GC9,0.951 ± 0.057

# An excerpt of these results, as tab-separated lines:
row	Target	NP40-soluble protein abundance
9	RAB39B (UniProt Q96DA2)	1.08 ± 0.15
12	UniProt Q96GC9	0.951 ± 0.057
